From the supplement of paper PMC7125110
± gives the standard error. Many entries were measured with a wide error.

B1: glmS ribozyme (parent)
chain: AUAAAAGCGCCAGAACUACAGAAAUGUAGUUGACGAGGAGGAGGUUUAUCGAAUUUUCGGCGGAUGCCUCCAAA

Variants of: B1
Assay: KM; higher = weaker cofactor use; RNA array
Details: with glucosamine-6-phosphate
In short: (§1)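 In situ transcription by E. coli RNA polymerase produced barcoded ribozyme variants on sequenced MiSeq chips, and a hybridised Cy3 probe tracked them at 37 °C. Glucosamine-6-phosphate was flowed in at 40 μM to 10 mM in HEPES/KCl/Mg(OAc)2 buffer. kcat and KM were taken from weighted Michaelis–Menten fits of kobs values from exponential decay fits.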

| Variant | KM [µM] |
| --- | --- |
| A64G C71G | 811 ± 570 |
| A64G G66C | 2990 ± 1700 |
| U65C | 1690 ± 310 |
| U65C G66A | 3960 ± 2300 |
| U65G U69C | 6890 ± 3800 |
| G66A C67A C71U | 4670 ± 3000 |
| G66A C68G | 196 ± 150 |
| C67U C71U | 2810 ± 1700 |
| C68G | 302 ± 260 |
| C68U C71A | 89.6 ± 72 |
| U69A C70U | 166 ± 84 |
| U69C C70U | 854 ± 350 |
| C71G | 1460 ± 470 |

Variants of: B1
Assay: self-cleavage kobs at 40 uM GlcN6P; higher = faster cleavage; RNA array
Details: with glucosamine-6-phosphate
In short: as §1

| Variant | self-cleavage kobs at 40 uM GlcN6P [s⁻¹] |
| --- | --- |
| U65G U69C | 1.9e-05 ± 1e-05 |
| G66A C68G | 2.24e-05 ± 1.2e-05 |
| A1U G41U C70G C71U | 2.6e-05 ± 2.2e-05 |
| A6C C50G U65A | 4.58e-05 ± 2.7e-05 |
| A6U C50G A53C C71A | 2.79e-05 ± 2.8e-05 |
| A6U U46G C58U C67U C68A | 3.41e-05 ± 2.6e-05 |
| A6U U69G | 2.29e-05 ± 1.8e-05 |
| G7A U30G C70G C71G | 5.58e-05 ± 3e-05 |
| G7C A14G C50G | 3.35e-05 ± 2.3e-05 |
| G7U G9U C11G A12G U47G C67G C68U C70A | 3.1e-05 ± 2e-05 |
| C8A C50G U54G C68U | 3.5e-05 ± 2.9e-05 |
| C8A G13A G37U C67U C68U | 4.58e-05 ± 2.4e-05 |
| C8U A12G C68G C71U | 2.47e-05 ± 2.1e-05 |
| C8U U54A U55A C67G | 4.52e-05 ± 3.6e-05 |
| G9A C10G U69G | 0.000533 ± 0.00027 |
| G9C U65A C68G | 4.11e-05 ± 2.4e-05 |
| C10A A33G G38U C58A C70U | 3.58e-05 ± 2e-05 |
| C10A U30A C58G C67U C70A | 3.01e-05 ± 2.4e-05 |
| C10G A39G G66A C67U C71G | 3.32e-05 ± 2.6e-05 |
| C10U C11G U30A U69G | 2.71e-05 ± 1.9e-05 |
| C11A C50G C61U | 4.96e-05 ± 2.6e-05 |
| C11A C67G | 2.33e-05 ± 1.6e-05 |
| C11A U30A C70G | 3.08e-05 ± 2.2e-05 |
| C11A U69G C71G | 5.17e-05 ± 2.9e-05 |

Exported as tab-separated lines: part of the list above.
Variant	self-cleavage kobs at 40 uM GlcN6P [s⁻¹]
C8U A12G C68G C71U	2.47e-05 ± 2.1e-05
C8U U54A U55A C67G	4.52e-05 ± 3.6e-05
G9A C10G U69G	0.000533 ± 0.00027

Variants of: B1
Assay: self-cleavage kobs at 2500 uM GlcN6P; higher = faster cleavage; RNA array
Details: with glucosamine-6-phosphate
In short: as §1

| Variant | self-cleavage kobs at 2500 uM GlcN6P [s⁻¹] |
| --- | --- |
| C68U C71A | 1.12e-05 ± 8.7e-06 |
| C8A G13A G37U C67U C68U | 3.62e-05 ± 1.9e-05 |
| G9C U65A C68G | 4.97e-05 ± 2.7e-05 |

Variants of: B1
Assay: self-cleavage kobs at 10000 uM GlcN6P; higher = faster cleavage; RNA array
Details: with glucosamine-6-phosphate
In short: as §1

| Variant | self-cleavage kobs at 10000 uM GlcN6P [s⁻¹] |
| --- | --- |
| C68U C71A | 1.05e-05 ± 8.5e-06 |
| A6U U69G | 1.97e-05 ± 1.3e-05 |
| C8A G13A G37U C67U C68U | 2.92e-05 ± 2.1e-05 |
| C8U A12G C68G C71U | 1.93e-05 ± 1.9e-05 |
| C10A U30A C58G C67U C70A | 2.94e-05 ± 1.7e-05 |
| C11A C50G C61U | 4.09e-05 ± 3e-05 |

Variants of: B1
Assay: self-cleavage kobs at 160 uM GlcN6P; higher = faster cleavage; RNA array
Details: with glucosamine-6-phosphate
In short: as §1

| Variant | self-cleavage kobs at 160 uM GlcN6P [s⁻¹] |
| --- | --- |
| A6U U69G | 3.21e-05 ± 1.8e-05 |
| G9C U65A C68G | 0.000225 ± 0.00014 |
